Reference: PubChem BioAssay AID1259254 (NCATS, 2017)
Here is one part, drawn at random, of about 59,000 deposited reagents. About 1,550 of them (2.6%) were called active. 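G2 share is only a proxy for re-replication; each gene was hit by three separate siRNAs, and active genes were retested.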 Raw values are not corrected between plates. Reagents against one gene are numbered here. The record does not give: the amount of reagent.

Assay: 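Genome-wide screen for genes that prevent DNA re-replication in cancer cells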 (primary screen)
Cells: human HCT116 colorectal cancer cells
Reagent: single siRNA against human genes
Time to read-out: 3 days
Read-out: 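Imaged Hoechst DNA stain sorts each cell into a cycle phase by DNA amount; per plate, G2 fraction set to 0% for non-targeting and 100% for GMNN siRNA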
Direction: G2 robust z-score and G2 cells, % of GMNN control: higher = more G2 cells, more excess DNA replication; raw share of cells in G2: higher = larger share of cells with G2 DNA content
Rule for the call: 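Active siRNAs have a G2 robust z of 5 or more median absolute deviations over the median, which in these data means about 38% or higher of GMNN control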

| target | reagent no. | G2 robust z-score | G2 cells, % of GMNN control | raw share of cells in G2 (%) | activity call |
| --- | --- | --- | --- | --- | --- |
| THEMIS2 | 1 | 0.383 | 5.66 | 7.89 | inactive |
| THEMIS2 | 2 | -1.17 | -5.26 | 1.75 | inactive |
| THEMIS2 | 3 | -0.637 | -1.52 | 2.85 | inactive |
| VMA12 | 1 | -0.252 | 1.2 | 4.23 | inactive |
| VMA12 | 2 | 4.87 | 37.2 | 14.4 | inactive |
| VMA12 | 3 | -0.205 | 1.52 | 3.6 | inactive |
| COL4A2 | 1 | -0.873 | -3.17 | 3.81 | inactive |
| COL4A2 | 2 | 0.354 | 5.46 | 6.09 | inactive |
| COL4A2 | 3 | -0.17 | 1.77 | 4.22 | inactive |
| DCAF4 | 1 | -0.183 | 1.68 | 5.04 | inactive |
| DCAF4 | 2 | 1.13 | 10.9 | 8.68 | inactive |
| DCAF4 | 3 | -0.933 | -3.59 | 2.04 | inactive |
| UTF1 | 1 | -0.198 | 1.58 | 5.83 | inactive |
| UTF1 | 2 | 0.192 | 4.32 | 5.61 | inactive |
| UTF1 | 3 | 1.22 | 11.5 | 7.42 | inactive |
| IPO13 | 1 | 1.4 | 12.8 | 10.1 | inactive |
| IPO13 | 2 | -0.741 | -2.24 | 3.84 | inactive |
| IPO13 | 3 | -0.981 | -3.94 | 1.86 | inactive |
| FCHO1 | 1 | -0.666 | -1.72 | 2.53 | inactive |
| FCHO1 | 2 | -1.14 | -5.06 | 3 | inactive |
| FCHO1 | 3 | 0.867 | 9.07 | 7.88 | inactive |
| PBXIP1 | 1 | 1.52 | 13.6 | 9.73 | inactive |
| PBXIP1 | 2 | -0.972 | -3.87 | 2.61 | inactive |
| PBXIP1 | 3 | 0.325 | 5.25 | 4.69 | inactive |
| POMGNT2 | 1 | -0.807 | -2.71 | 2.93 | inactive |
| POMGNT2 | 2 | 1.5 | 13.6 | 7.25 | inactive |
| POMGNT2 | 3 | -0.896 | -3.33 | 1.87 | inactive |
| LRRC52 | 1 | -0.0977 | 2.28 | 6.89 | inactive |
| LRRC52 | 2 | -0.589 | -1.18 | 4.5 | inactive |
| LRRC52 | 3 | -0.289 | 0.938 | 4.63 | inactive |
| TGFBI | 1 | 0.267 | 4.85 | 7.31 | inactive |
| TGFBI | 2 | -0.246 | 1.23 | 4.97 | inactive |
| TGFBI | 3 | 0.106 | 3.71 | 5.19 | inactive |
| COPS2 | 1 | 7.24 | 53.9 | 24 | active |
| COPS2 | 2 | 4.17 | 32.3 | 16.6 | inactive |
| COPS2 | 3 | -0.117 | 2.14 | 5.51 | inactive |
| FBLN1 | 1 | 0.28 | 4.94 | 5.42 | inactive |
| FBLN1 | 2 | -0.331 | 0.638 | 5.51 | inactive |
| FBLN1 | 3 | 5.82 | 43.9 | 21.2 | active |
| PGAM2 | 1 | 4.8 | 36.7 | 16.7 | inactive |
| PGAM2 | 2 | -0.505 | -0.584 | 4.13 | inactive |
| PGAM2 | 3 | -0.722 | -2.11 | 2.86 | inactive |
| PWWP3B | 1 | -0.995 | -4.03 | 2.65 | inactive |
| PWWP3B | 2 | -0.475 | -0.377 | 2.98 | inactive |
| PWWP3B | 3 | 0.284 | 4.97 | 4.38 | inactive |
| CLIC5 | 1 | 3.58 | 28.1 | 15.5 | inactive |
| CLIC5 | 2 | -0.292 | 0.912 | 5.09 | inactive |
| CLIC5 | 3 | -0.811 | -2.74 | 3.31 | inactive |
| LINC02903 | 1 | -0.505 | -0.587 | 2.58 | inactive |
| LINC02903 | 2 | 2.01 | 17.1 | 9.73 | inactive |
| LINC02903 | 3 | -0.324 | 0.685 | 3.19 | inactive |
| TMPRSS11F | 1 | -0.344 | 0.55 | 5.75 | inactive |
| TMPRSS11F | 2 | 1.4 | 12.8 | 9.45 | inactive |
| TMPRSS11F | 3 | -0.573 | -1.07 | 3.51 | inactive |
| SPANXN4 | 1 | -0.352 | 0.494 | 3.29 | inactive |
| SPANXN4 | 2 | -0.486 | -0.455 | 3.45 | inactive |
| SPANXN4 | 3 | -0.472 | -0.352 | 3.28 | inactive |
| TMPRSS12 | 1 | 1.59 | 14.1 | 11.6 | inactive |
| TMPRSS12 | 2 | 0.0721 | 3.47 | 5.62 | inactive |
| TMPRSS12 | 3 | -0.386 | 0.249 | 4.35 | inactive |
| LINC00703 | 1 | -0.0984 | 2.27 | 4.41 | inactive |
| LINC00703 | 2 | -0.0302 | 2.76 | 3.84 | inactive |
| LINC00703 | 3 | 0.542 | 6.78 | 6.17 | inactive |
| B3GALT6 | 1 | -1.14 | -5.05 | 3.33 | inactive |
| B3GALT6 | 2 | 0.294 | 5.03 | 6.38 | inactive |
| B3GALT6 | 3 | -0.587 | -1.17 | 4.47 | inactive |
| C14orf39 | 1 | 1.09 | 10.7 | 7.65 | inactive |
| C14orf39 | 2 | -0.191 | 1.62 | 3.97 | inactive |
| C14orf39 | 3 | 0.135 | 3.91 | 5.77 | inactive |
| NMD3 | 1 | -0.986 | -3.97 | 2 | inactive |
| NMD3 | 2 | 0.179 | 4.22 | 5.47 | inactive |
| NMD3 | 3 | 0.946 | 9.62 | 8.19 | inactive |
| EMILIN2 | 1 | 0.342 | 5.37 | 4.69 | inactive |
| EMILIN2 | 2 | 2.25 | 18.8 | 14.4 | inactive |
| EMILIN2 | 3 | -1.26 | -5.89 | 1.78 | inactive |
| FAM230B | 1 | 3.85 | 30 | 13.3 | inactive |
| FAM230B | 2 | 0.201 | 4.38 | 5.31 | inactive |
| FAM230B | 3 | -0.446 | -0.17 | 3.35 | inactive |
| MIR9-1HG | 1 | 0.688 | 7.81 | 8.86 | inactive |
| MIR9-1HG | 2 | -0.892 | -3.31 | 2.56 | inactive |
| MIR9-1HG | 3 | 0.853 | 8.97 | 6.67 | inactive |
| BGLAP | 1 | -0.627 | -1.44 | 2.89 | inactive |
| BGLAP | 2 | 1.98 | 16.9 | 12.8 | inactive |
| BGLAP | 3 | 1.13 | 10.9 | 7.08 | inactive |
| TEK | 1 | 1.05 | 10.3 | 9.02 | inactive |
| TEK | 2 | -0.189 | 1.64 | 4.6 | inactive |
| TEK | 3 | 0.118 | 3.8 | 6.69 | inactive |

Active calls, of those listed so far:
| target | reagent no. | G2 robust z-score | G2 cells, % of GMNN control | raw share of cells in G2 (%) | activity call |
| --- | --- | --- | --- | --- | --- |
| COPS2 | 1 | 7.24 | 53.9 | 24 | active |
| FBLN1 | 3 | 5.82 | 43.9 | 21.2 | active |
